Literature values, collected in US8106041B2, “Combination product comprising an antagonist or inverse agonist of histamine receptor H3 and an antipsychotic and antidepressant agent, and use thereof for the preparation of a medicament that prevents the adverse effects of psychotropic drugs” (Bioprojet, priority 2003, dated 2012).
Some of these results come from one statement about several compounds together.

Conditions: patients, continuous treatment; cited from earlier work

| Structure (SMILES) | total weight gains |
| --- | --- |
| Cc1nc2n(c(=O)c1CCN1CCC(c3noc4cc(F)ccc34)CC1)CCCC2 [risperidone] | exceed 4 kg |
| CN(C)CCC=C1c2ccccc2CCc2ccccc21 [amitriptyline] | exceed 4 kg |
| Cc1cc2c(s1)Nc1ccccc1N=C2N1CCN(C)CC1 [olanzapine] | exceed 4 kg |
| Fc1ccc([C@@H]2CCNC[C@H]2COc2ccc3c(c2)OCO3)cc1 [paroxetine] | exceed 4 kg |
